The record followed here is PubChem BioAssay AID2274 (NMMLSC, 2010).

Some of the results follow.

The assay in a line: TOR pathway CIT2 reporter hit retest – S. cerevisiae, GFP fusion, cherry picks, mother/daughter gates, confirmation (AID 2274). The conditions noted are these: S. cerevisiae CIT2-GFP strain, flow cytometry, 3 h, at 10 µM, stronger effect = higher value. (In general: In flow cytometry, cells or beads pass a laser one at a time.)
Setting [1] is: measured here: daughter cell gate.
Setting [2] is: measured here: mother cell gate.

In the case of `O=P(Nc1nccs1)(c1ccccc1)c1nc2ccccc2s1` (stereo unspecified), the GFP response, % of DMSO is, setting by setting: under setting [1], 98.3%; under setting [2], 96.8%.

Take `CCOP(=O)(Nc1cccc2ccccc12)OCC`: the GFP response, % of DMSO is 105% under setting [1] and 102% under setting [2].

As to `C[N+]1=C2C=CC=CC=C2SC12C([N+](=O)[O-])=CC([N+](=O)[O-])=C[C-]2[N+](=O)[O-]` (stereo unspecified), the GFP response, % of DMSO was 101% under setting [1] and 96.8% under setting [2].
